Here are results for 5 substances from publication PMC5064014.

Chains of the proteins cited; added tags and fusions are not shown.
UniProt Q8N5F7: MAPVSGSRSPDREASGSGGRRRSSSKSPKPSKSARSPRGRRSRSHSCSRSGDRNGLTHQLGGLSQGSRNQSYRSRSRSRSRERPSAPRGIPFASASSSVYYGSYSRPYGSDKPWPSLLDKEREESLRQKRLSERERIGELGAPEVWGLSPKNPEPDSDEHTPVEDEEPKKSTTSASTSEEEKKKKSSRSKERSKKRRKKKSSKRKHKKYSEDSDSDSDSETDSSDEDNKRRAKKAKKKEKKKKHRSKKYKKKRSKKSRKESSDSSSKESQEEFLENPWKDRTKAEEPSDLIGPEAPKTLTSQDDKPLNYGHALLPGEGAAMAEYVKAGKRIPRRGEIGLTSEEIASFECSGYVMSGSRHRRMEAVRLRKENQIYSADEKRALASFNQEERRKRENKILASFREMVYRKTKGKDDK
UniProt O43684: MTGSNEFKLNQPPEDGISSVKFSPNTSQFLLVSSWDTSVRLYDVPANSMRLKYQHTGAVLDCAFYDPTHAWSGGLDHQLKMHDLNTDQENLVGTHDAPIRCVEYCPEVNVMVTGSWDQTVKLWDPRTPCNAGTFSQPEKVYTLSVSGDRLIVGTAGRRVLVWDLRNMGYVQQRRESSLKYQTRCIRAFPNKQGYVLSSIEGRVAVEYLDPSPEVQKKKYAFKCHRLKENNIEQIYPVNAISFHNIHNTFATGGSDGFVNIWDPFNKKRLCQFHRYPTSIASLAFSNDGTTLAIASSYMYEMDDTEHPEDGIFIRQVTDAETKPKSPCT
UniProt O60566: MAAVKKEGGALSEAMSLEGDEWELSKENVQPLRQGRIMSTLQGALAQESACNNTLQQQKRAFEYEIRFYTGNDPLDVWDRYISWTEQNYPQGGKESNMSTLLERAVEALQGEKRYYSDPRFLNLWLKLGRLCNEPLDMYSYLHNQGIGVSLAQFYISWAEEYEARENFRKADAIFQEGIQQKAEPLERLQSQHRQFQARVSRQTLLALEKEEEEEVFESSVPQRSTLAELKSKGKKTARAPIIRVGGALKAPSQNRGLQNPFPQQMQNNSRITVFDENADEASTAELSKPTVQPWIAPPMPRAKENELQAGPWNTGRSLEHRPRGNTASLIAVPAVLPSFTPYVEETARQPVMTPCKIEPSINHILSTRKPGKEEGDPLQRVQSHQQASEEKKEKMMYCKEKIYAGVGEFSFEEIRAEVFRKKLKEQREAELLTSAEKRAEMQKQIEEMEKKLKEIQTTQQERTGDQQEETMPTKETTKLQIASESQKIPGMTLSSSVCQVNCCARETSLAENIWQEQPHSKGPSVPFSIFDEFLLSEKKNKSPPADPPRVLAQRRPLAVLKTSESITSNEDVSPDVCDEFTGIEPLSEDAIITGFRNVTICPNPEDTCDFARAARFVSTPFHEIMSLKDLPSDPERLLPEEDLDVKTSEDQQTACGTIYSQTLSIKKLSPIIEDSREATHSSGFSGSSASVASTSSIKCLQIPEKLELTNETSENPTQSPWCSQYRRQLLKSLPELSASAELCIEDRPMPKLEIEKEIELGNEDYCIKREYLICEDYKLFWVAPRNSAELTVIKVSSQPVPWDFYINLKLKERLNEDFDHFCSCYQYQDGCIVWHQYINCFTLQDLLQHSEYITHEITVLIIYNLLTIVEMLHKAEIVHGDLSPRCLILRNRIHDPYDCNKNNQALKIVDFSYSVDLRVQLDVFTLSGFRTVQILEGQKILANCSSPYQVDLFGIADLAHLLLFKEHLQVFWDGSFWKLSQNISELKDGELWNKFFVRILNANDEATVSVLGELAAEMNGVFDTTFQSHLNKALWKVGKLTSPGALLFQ

These are yes or no findings as the source states them, for the method shown. Binding seen in cells or lysates may run through a third protein. Some results given as binding are weak or reduced against the parent protein; the word gives no strength.

The target of assay [1] is Flag-NKAP (wild type) (human) (UniProt Q8N5F7). Description: co-IP; HeLa cells transfected with Flag vector, Flag-NKAP (WT) or Flag-NKAP (14KR), synchronised in mitosis/prometaphase (thymidine–nocodazole) or G1 (much less found in G1); TNE lysis buffer (50 mM Tris–HCl pH 8, 200 mM NaCl, 0.5% NP-40, 0.1 mM EDTA, 10 mM NEM); anti-Flag M2 beads; immunoblot of endogenous partners. (A western blot detects proteins with antibodies after separation by electrophoresis.)

For assay [2], the target named is GST-NKAP (wild type) (human) (UniProt Q8N5F7). Description: pull-down; bacterially expressed GST-NKAP used to pull down proteins from cell lysates; only the target purified.
The target in assay [3] is Flag-NKAP (wild type) (human) (UniProt Q8N5F7). Description: co-IP; His-Bub3 co-immunoprecipitated with Flag-NKAP (Supplementary Fig. 7g); cells not given.
In assay [4] the target is GST-NKAP (wild type) (human) (UniProt Q8N5F7). The experiment in a line: pull-down; in vitro translated ^35S-labelled Flag-Bub3 incubated with GST or GST-NKAP; 50 mM Tris–HCl pH 7.5, 150 mM NaCl, 1 mM EDTA, 0.3 mM dithiothreitol, 0.1% NP-40; overnight at 4 °C; four washes; only the target purified.

For “Bub3 (endogenous, HeLa) (from UniProt O43684 1-328)”, in assay [1], the binding result is listed as “binds”.
“Bub3 in cell lysates (GST-NKAP pull-down) (from UniProt O43684 1-328)”: the binding entry in assay [2] is “binds”.
With “BubR1 (endogenous, HeLa) (from UniProt O60566 1-1050)”, the binding entry in assay [1] is on record as “binds”.
As to “His-Bub3 (co-IP of Supplementary Fig. 7g) (from UniProt O43684 1-328)”, in assay [3], the binding result was “binds”.
For “^35S-labelled Flag-Bub3 (in vitro translated) (from UniProt O43684 1-328)”, the binding entry in assay [4] is “binds”.
